Reference: PMC9247503, “Oligomerization and Spatial Distribution of Kvβ1.1 and Kvβ2.1 Regulatory Subunits” (Frontiers in Physiology, 2022)
These are yes or no findings as the source states them, for the method shown. Binding seen in cells or lysates may run through a third protein. Some entries that bind do so weakly or less than the wild type. Each block holds one molecule with its values, some of them ahead of it.

Protein sequences, listed by entry. Tags and fused reporters are not part of them.
UniProt P15384: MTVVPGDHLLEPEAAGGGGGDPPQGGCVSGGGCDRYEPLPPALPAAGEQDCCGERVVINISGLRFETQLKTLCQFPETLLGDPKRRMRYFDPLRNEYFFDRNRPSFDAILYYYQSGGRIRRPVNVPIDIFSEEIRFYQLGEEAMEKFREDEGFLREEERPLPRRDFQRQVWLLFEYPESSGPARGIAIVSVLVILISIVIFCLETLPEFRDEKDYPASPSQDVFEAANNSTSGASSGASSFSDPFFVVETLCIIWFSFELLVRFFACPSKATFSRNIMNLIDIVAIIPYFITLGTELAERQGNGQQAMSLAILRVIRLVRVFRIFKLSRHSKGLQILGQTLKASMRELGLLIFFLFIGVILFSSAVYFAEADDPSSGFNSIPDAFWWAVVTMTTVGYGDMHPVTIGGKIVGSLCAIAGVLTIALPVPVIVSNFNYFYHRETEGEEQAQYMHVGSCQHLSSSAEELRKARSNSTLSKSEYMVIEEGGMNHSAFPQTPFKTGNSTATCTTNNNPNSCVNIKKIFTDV

What was measured:
Kv1.3CFP = Kv1.3CFP (UniProt P15384); assay: FRET or BRET; acceptor photobleaching FRET in fixed whole HEK-293 cells; CFP donor, YFP acceptor; confocal microscope
[1] = target: T1, Kvβ1.1CFP (mouse (from the prefix m in mKvβ1.1)) (UniProt P63143); assay: co-IP; HEK-293 cells co-transfected, no Kv α subunit; 1 mg lysate protein in 150 mM NaCl, 50 mM HEPES, 1% Triton X-100, pH 7.4; anti-GFP antibody crosslinked to protein A Sepharose, 2 h at room temperature; blots against CFP, Kvβ1.1 or Kvβ2.1
T1 sequence: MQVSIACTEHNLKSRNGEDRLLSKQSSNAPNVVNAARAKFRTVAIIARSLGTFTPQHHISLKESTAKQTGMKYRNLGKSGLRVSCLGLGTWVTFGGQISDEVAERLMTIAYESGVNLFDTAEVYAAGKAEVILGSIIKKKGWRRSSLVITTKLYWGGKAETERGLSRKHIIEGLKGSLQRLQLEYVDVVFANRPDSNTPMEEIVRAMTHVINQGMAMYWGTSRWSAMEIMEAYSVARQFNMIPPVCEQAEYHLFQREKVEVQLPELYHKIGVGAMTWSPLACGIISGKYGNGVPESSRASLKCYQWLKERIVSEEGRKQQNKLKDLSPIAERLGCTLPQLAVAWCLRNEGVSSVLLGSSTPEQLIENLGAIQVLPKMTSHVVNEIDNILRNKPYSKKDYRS

[2] = target: T1, Kvβ1.1CFP (mouse (from the prefix m in mKvβ1.1)); assay: FRET or BRET; acceptor photobleaching FRET in fixed whole HEK-293 cells; CFP donor, YFP acceptor; confocal microscope
[3] = target: T1, Kvβ1.1CFP (mouse (from the prefix m in mKvβ1.1)); assay: FRET or BRET; acceptor photobleaching FRET on cell unroofing preparations (CUPs, plasma membrane sheets) of transfected HEK-293 cells, fixed; CFP donor, YFP acceptor
[4] = target: T2, Kvβ2.1CFP (mouse (from the prefix m in mKvβ2.1)), P62482; assay: co-IP; HEK-293 cells co-transfected, no Kv α subunit; 1 mg lysate protein in 150 mM NaCl, 50 mM HEPES, 1% Triton X-100, pH 7.4; anti-GFP antibody crosslinked to protein A Sepharose, 2 h at room temperature; blots against CFP, Kvβ1.1 or Kvβ2.1; details: remark: other sources report otherwise
T2 chain: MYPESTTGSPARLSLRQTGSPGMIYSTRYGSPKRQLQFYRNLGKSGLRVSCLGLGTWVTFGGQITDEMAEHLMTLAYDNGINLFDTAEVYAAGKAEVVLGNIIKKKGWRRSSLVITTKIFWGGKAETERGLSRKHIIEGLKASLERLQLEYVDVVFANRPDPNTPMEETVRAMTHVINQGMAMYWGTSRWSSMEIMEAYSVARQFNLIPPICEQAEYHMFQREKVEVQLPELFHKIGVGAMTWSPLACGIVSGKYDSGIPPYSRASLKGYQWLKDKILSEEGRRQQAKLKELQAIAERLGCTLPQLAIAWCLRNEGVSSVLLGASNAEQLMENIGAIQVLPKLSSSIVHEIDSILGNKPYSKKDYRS

[5] = target: T2, Kvβ2.1CFP (mouse (from the prefix m in …)); assay: FRET or BRET; acceptor photobleaching FRET in fixed whole HEK-293 cells; CFP donor, YFP acceptor; confocal microscope; details: remark: other sources report otherwise
[6] = target: T2, Kvβ2.1CFP (mouse (from the prefix m in …)); assay: FRET or BRET; acceptor photobleaching FRET on cell unroofing preparations (CUPs, plasma membrane sheets) of transfected HEK-293 cells, fixed; CFP donor, YFP acceptor; details: remark: other sources report otherwise

- binding (Kv1.3CFP): binds
Molecule: Kv1.3YFP (from UniProt P15384 1-525)

- binding [1]: binds
B1: Kvβ1.1 (protein, UniProt P63143 1-401)
chain: MQVSIACTEHNLKSRNGEDRLLSKQSSNAPNVVNAARAKFRTVAIIARSLGTFTPQHHISLKESTAKQTGMKYRNLGKSGLRVSCLGLGTWVTFGGQISDEVAERLMTIAYESGVNLFDTAEVYAAGKAEVILGSIIKKKGWRRSSLVITTKLYWGGKAETERGLSRKHIIEGLKGSLQRLQLEYVDVVFANRPDSNTPMEEIVRAMTHVINQGMAMYWGTSRWSAMEIMEAYSVARQFNMIPPVCEQAEYHLFQREKVEVQLPELYHKIGVGAMTWSPLACGIISGKYGNGVPESSRASLKCYQWLKERIVSEEGRKQQNKLKDLSPIAERLGCTLPQLAVAWCLRNEGVSSVLLGSSTPEQLIENLGAIQVLPKMTSHVVNEIDNILRNKPYSKKDYRS

- binding [2]: binds
- binding [3]: binds
B2: Kvβ1.1YFP (natural protein, mouse (from the prefix m in mKvβ1.1), UniProt P63143 1-401, looked up)
chain: MQVSIACTEHNLKSRNGEDRLLSKQSSNAPNVVNAARAKFRTVAIIARSLGTFTPQHHISLKESTAKQTGMKYRNLGKSGLRVSCLGLGTWVTFGGQISDEVAERLMTIAYESGVNLFDTAEVYAAGKAEVILGSIIKKKGWRRSSLVITTKLYWGGKAETERGLSRKHIIEGLKGSLQRLQLEYVDVVFANRPDSNTPMEEIVRAMTHVINQGMAMYWGTSRWSAMEIMEAYSVARQFNMIPPVCEQAEYHLFQREKVEVQLPELYHKIGVGAMTWSPLACGIISGKYGNGVPESSRASLKCYQWLKERIVSEEGRKQQNKLKDLSPIAERLGCTLPQLAVAWCLRNEGVSSVLLGSSTPEQLIENLGAIQVLPKMTSHVVNEIDNILRNKPYSKKDYRS
notes: voltage-gated potassium channel regulatory subunit Kvβ1.1 (splice form 1.1 of Kvβ1), mouse by the prefix m in mKvβ1.1; also called mKvβ1.1 in pEYFP-N1; source: HEK-293, transfected; in cells or membrane sheets (FRET) and in lysate (semidenaturing gel)

- binding [4]: binds
B3: Kvβ2.1, P62482 1-367 (protein)
chain: MYPESTTGSPARLSLRQTGSPGMIYSTRYGSPKRQLQFYRNLGKSGLRVSCLGLGTWVTFGGQITDEMAEHLMTLAYDNGINLFDTAEVYAAGKAEVVLGNIIKKKGWRRSSLVITTKIFWGGKAETERGLSRKHIIEGLKASLERLQLEYVDVVFANRPDPNTPMEETVRAMTHVINQGMAMYWGTSRWSSMEIMEAYSVARQFNLIPPICEQAEYHMFQREKVEVQLPELFHKIGVGAMTWSPLACGIVSGKYDSGIPPYSRASLKGYQWLKDKILSEEGRRQQAKLKELQAIAERLGCTLPQLAIAWCLRNEGVSSVLLGASNAEQLMENIGAIQVLPKLSSSIVHEIDSILGNKPYSKKDYRS

- binding [5]: binds
- binding [6]: binds
B4: Kvβ2.1YFP, P62482 1-367 (natural protein)
chain: MYPESTTGSPARLSLRQTGSPGMIYSTRYGSPKRQLQFYRNLGKSGLRVSCLGLGTWVTFGGQITDEMAEHLMTLAYDNGINLFDTAEVYAAGKAEVVLGNIIKKKGWRRSSLVITTKIFWGGKAETERGLSRKHIIEGLKASLERLQLEYVDVVFANRPDPNTPMEETVRAMTHVINQGMAMYWGTSRWSSMEIMEAYSVARQFNLIPPICEQAEYHMFQREKVEVQLPELFHKIGVGAMTWSPLACGIVSGKYDSGIPPYSRASLKGYQWLKDKILSEEGRRQQAKLKELQAIAERLGCTLPQLAIAWCLRNEGVSSVLLGASNAEQLMENIGAIQVLPKLSSSIVHEIDSILGNKPYSKKDYRS

- binding [2]: binds
- binding [3]: binds
B5: Kvβ2.1YFP (natural protein, mouse (from the prefix m in mKvβ2.1), UniProt P62482 1-367, looked up)
chain: MYPESTTGSPARLSLRQTGSPGMIYSTRYGSPKRQLQFYRNLGKSGLRVSCLGLGTWVTFGGQITDEMAEHLMTLAYDNGINLFDTAEVYAAGKAEVVLGNIIKKKGWRRSSLVITTKIFWGGKAETERGLSRKHIIEGLKASLERLQLEYVDVVFANRPDPNTPMEETVRAMTHVINQGMAMYWGTSRWSSMEIMEAYSVARQFNLIPPICEQAEYHMFQREKVEVQLPELFHKIGVGAMTWSPLACGIVSGKYDSGIPPYSRASLKGYQWLKDKILSEEGRRQQAKLKELQAIAERLGCTLPQLAIAWCLRNEGVSSVLLGASNAEQLMENIGAIQVLPKLSSSIVHEIDSILGNKPYSKKDYRS
notes: voltage-gated potassium channel regulatory subunit Kvβ2.1, mouse by the prefix m in mKvβ2.1; also called mKvβ2.1 in pEYFP-N1; Kvb2.1 YFP; source: HEK-293, transfected; in cells or membrane sheets (FRET) and in lysate (semidenaturing gel)

- binding [1]: binds
B6: Kvβ2.1 (protein, UniProt P62482 1-367)
chain: MYPESTTGSPARLSLRQTGSPGMIYSTRYGSPKRQLQFYRNLGKSGLRVSCLGLGTWVTFGGQITDEMAEHLMTLAYDNGINLFDTAEVYAAGKAEVVLGNIIKKKGWRRSSLVITTKIFWGGKAETERGLSRKHIIEGLKASLERLQLEYVDVVFANRPDPNTPMEETVRAMTHVINQGMAMYWGTSRWSSMEIMEAYSVARQFNLIPPICEQAEYHMFQREKVEVQLPELFHKIGVGAMTWSPLACGIVSGKYDSGIPPYSRASLKGYQWLKDKILSEEGRRQQAKLKELQAIAERLGCTLPQLAIAWCLRNEGVSSVLLGASNAEQLMENIGAIQVLPKLSSSIVHEIDSILGNKPYSKKDYRS
